Results published in patent US12167998B2, “Spiro-lactam NMDA receptor modulators and uses thereof” (Tenacia Biotechnology (Hong Kong) Co., Limited, priority 2013, dated 2024).
At least one structure is not confirmed: it was looked up by name or label, or the drawing left a doubt.

System: hippocampal slices, Schaffer collateral-CA1
Assay: Long term potentiation in hippocampal slices
Format: cell-based, rat
Design: key: Significant (S); Non-significant (NS)
Experimental: Assays were conducted as described in Zhang et al. (Zhang, X. L., Sullivan, J. A., Moskal, J. R., Stanton, P. K., 2008. A NMDA receptor glycine site partial agonist, GLYX-13, simultaneously enhances LTP and reduces LTD at Schaffer collateral-CA1 synapses in hippocampus. Neuropharmacology. 55, 1238-50) Sprague-Dawley rats (12-18 days old; Taconic Farms) were deeply anesthetized with isoflurane and decapitated. Rat brains were removed rapidly, submerged in ice-cold artificial cerebrospinal fluid (ACSF, 2-4° C.), which contained (in mM): 124 NaCl, 4 KCl, 2 MgSO4, 2 CaCl2, 1.25 NaH2PO4, 26 NaHCO3, 10 glucose; at pH 7.4, gassed continuously with 95% O2/5% CO2). […] A bipolar stainless steel stimulating electrode (FHC Co.) was placed on Schaffer collateral-commissural fibers in CA3 stratum radiatum, and constant current stimulus intensity adjusted to evoke approximately half-maximal fEPSPs once each 30 s ([…]; 100 μs duration). fEPSP slope was measured before and after induction of LTP by linear interpolation from 20 to 80% of maximum negative deflection, and slopes confirmed to be stable to within ±10% for at least 15 min before commencing an experiment. […] The signals were recorded using a Multiclamp 700B amplifier and digitized with a Digidata 1322 (Axon Instruments, USA). Data were analyzed using pClamp software (version 9, Axon Instruments) on an IBM-compatible personal computer.

Structure (SMILES)	Unified Activity Data: LTP, Significant (S) or Non-significant (NS) (LTP concentration 0.1 uM)	Unified Activity Data: LTP, Significant (S) or Non-significant (NS) (LTP concentration 1 uM)
CC1CCC2(CN([C@H](C(N)=O)[C@@H](C)O)C2=O)N1 (stereo partly drawn) [Compound 2S-FNL-34, (2S,3R)-3-hydroxy-2-(6-methyl-1-oxo-2,5-diazaspiro[3.4]octan-2-yl) butanamide]	S	
C[C@@H](O)[C@@H](C(N)=O)N1CC2(CCCN2)C1=O (stereo partly drawn) [Compound 2S-FNL-3, (2S,3R)-3-hydroxy-2-(1-oxo-2,5-diazaspiro[3.4]octan-2-yl) butanamide]		S
